Data from paper PMC10427235.
No constants are given. Whether binding was seen depends on the method and setting. Binding seen in cells or lysates may run through a third protein. Some binding calls cover weakened binding; strength is not graded here.

Chains of the proteins cited; added tags and fusions are not shown.
UniProt Q9Y572: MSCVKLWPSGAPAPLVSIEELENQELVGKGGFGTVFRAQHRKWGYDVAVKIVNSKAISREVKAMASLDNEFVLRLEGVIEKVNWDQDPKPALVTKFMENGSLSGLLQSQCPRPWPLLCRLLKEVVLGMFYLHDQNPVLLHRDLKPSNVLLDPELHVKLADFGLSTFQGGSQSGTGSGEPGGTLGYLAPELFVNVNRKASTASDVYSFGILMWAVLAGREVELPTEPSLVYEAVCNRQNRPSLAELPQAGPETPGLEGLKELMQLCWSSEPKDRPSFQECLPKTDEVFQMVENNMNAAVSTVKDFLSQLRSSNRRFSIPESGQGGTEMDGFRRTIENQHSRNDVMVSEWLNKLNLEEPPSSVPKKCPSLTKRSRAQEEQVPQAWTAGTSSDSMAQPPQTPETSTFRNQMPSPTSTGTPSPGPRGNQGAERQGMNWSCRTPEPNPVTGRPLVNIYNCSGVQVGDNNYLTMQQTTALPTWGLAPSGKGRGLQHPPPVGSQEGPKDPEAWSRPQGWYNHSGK
UniProt Q13546: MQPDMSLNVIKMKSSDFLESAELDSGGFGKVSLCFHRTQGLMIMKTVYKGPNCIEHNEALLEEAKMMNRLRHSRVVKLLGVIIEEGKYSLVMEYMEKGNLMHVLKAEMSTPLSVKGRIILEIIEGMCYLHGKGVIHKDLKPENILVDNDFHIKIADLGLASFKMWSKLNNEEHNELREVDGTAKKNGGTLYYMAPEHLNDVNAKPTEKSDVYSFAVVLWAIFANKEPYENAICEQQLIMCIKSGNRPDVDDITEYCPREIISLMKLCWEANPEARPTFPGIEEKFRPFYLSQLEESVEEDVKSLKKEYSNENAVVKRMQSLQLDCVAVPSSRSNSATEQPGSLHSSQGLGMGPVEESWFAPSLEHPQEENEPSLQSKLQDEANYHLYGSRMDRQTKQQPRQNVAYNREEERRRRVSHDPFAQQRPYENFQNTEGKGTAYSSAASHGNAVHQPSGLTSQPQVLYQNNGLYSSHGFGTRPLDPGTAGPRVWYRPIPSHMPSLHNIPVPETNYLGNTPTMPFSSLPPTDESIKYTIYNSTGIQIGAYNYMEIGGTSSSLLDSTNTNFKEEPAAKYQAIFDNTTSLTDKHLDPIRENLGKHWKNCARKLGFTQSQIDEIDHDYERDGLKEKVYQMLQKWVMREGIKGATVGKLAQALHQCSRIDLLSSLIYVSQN

Target: receptor-interacting protein kinase 3 (human (endogenous in AGS and HGC27)) (UniProt Q9Y572)
Assay: co-IP; 5 ug anti-RIPK3 antibody with 1 mg lysate of AGS or HGC27 cells, untreated or treated with 2 uM gambogic acid for 24 h; 4°C overnight, protein A or G agarose beads, washed 3 times with lysis buffer (20 mM Hepes pH 7.4, 1% Triton X-100, 40 mM KCl); RIPK1, RIPK3, phospho-RIPK3 and MLKL detected by western blot

binding: binds
Substance: receptor-interacting protein kinase 1 (from UniProt Q13546 1-671)
